Test results published in PMC6156379.
These are yes or no findings as the source states them, for the method shown. Binding seen in cells or lysates may run through a third protein. Some binding calls cover weakened binding; strength is not graded here.

By UniProt entry, the sequences of proteins in these tests, tags left out. Residues count along the entry.
UniProt P97772, residues 21-1199: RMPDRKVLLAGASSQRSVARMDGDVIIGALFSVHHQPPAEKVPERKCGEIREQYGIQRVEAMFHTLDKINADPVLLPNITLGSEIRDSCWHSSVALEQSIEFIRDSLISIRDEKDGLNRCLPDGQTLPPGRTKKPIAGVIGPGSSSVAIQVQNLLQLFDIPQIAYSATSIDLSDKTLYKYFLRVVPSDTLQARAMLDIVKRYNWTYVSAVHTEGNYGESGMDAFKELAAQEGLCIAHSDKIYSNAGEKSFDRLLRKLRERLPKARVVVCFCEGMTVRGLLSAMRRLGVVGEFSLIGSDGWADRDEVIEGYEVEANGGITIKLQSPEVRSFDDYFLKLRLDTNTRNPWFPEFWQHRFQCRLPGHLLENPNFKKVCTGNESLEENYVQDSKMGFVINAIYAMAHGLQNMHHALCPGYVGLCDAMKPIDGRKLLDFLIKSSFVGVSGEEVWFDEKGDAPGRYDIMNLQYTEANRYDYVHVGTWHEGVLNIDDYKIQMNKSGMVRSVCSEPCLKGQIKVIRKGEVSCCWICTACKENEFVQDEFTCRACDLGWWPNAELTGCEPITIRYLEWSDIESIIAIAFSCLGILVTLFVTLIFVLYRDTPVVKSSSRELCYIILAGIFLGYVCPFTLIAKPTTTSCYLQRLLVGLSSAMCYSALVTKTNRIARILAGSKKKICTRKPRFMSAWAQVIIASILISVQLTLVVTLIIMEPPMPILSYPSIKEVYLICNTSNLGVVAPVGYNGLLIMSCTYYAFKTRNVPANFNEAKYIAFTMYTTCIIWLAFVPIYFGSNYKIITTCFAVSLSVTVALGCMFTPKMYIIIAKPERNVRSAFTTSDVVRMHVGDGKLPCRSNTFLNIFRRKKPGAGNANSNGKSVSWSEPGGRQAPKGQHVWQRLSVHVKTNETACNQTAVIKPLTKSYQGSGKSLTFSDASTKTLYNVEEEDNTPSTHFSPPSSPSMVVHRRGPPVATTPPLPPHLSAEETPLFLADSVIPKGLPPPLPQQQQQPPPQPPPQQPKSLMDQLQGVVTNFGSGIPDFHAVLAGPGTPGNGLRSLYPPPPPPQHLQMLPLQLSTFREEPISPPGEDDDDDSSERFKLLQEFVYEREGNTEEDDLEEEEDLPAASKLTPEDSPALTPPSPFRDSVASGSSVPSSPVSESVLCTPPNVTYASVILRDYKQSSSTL
UniProt P97445: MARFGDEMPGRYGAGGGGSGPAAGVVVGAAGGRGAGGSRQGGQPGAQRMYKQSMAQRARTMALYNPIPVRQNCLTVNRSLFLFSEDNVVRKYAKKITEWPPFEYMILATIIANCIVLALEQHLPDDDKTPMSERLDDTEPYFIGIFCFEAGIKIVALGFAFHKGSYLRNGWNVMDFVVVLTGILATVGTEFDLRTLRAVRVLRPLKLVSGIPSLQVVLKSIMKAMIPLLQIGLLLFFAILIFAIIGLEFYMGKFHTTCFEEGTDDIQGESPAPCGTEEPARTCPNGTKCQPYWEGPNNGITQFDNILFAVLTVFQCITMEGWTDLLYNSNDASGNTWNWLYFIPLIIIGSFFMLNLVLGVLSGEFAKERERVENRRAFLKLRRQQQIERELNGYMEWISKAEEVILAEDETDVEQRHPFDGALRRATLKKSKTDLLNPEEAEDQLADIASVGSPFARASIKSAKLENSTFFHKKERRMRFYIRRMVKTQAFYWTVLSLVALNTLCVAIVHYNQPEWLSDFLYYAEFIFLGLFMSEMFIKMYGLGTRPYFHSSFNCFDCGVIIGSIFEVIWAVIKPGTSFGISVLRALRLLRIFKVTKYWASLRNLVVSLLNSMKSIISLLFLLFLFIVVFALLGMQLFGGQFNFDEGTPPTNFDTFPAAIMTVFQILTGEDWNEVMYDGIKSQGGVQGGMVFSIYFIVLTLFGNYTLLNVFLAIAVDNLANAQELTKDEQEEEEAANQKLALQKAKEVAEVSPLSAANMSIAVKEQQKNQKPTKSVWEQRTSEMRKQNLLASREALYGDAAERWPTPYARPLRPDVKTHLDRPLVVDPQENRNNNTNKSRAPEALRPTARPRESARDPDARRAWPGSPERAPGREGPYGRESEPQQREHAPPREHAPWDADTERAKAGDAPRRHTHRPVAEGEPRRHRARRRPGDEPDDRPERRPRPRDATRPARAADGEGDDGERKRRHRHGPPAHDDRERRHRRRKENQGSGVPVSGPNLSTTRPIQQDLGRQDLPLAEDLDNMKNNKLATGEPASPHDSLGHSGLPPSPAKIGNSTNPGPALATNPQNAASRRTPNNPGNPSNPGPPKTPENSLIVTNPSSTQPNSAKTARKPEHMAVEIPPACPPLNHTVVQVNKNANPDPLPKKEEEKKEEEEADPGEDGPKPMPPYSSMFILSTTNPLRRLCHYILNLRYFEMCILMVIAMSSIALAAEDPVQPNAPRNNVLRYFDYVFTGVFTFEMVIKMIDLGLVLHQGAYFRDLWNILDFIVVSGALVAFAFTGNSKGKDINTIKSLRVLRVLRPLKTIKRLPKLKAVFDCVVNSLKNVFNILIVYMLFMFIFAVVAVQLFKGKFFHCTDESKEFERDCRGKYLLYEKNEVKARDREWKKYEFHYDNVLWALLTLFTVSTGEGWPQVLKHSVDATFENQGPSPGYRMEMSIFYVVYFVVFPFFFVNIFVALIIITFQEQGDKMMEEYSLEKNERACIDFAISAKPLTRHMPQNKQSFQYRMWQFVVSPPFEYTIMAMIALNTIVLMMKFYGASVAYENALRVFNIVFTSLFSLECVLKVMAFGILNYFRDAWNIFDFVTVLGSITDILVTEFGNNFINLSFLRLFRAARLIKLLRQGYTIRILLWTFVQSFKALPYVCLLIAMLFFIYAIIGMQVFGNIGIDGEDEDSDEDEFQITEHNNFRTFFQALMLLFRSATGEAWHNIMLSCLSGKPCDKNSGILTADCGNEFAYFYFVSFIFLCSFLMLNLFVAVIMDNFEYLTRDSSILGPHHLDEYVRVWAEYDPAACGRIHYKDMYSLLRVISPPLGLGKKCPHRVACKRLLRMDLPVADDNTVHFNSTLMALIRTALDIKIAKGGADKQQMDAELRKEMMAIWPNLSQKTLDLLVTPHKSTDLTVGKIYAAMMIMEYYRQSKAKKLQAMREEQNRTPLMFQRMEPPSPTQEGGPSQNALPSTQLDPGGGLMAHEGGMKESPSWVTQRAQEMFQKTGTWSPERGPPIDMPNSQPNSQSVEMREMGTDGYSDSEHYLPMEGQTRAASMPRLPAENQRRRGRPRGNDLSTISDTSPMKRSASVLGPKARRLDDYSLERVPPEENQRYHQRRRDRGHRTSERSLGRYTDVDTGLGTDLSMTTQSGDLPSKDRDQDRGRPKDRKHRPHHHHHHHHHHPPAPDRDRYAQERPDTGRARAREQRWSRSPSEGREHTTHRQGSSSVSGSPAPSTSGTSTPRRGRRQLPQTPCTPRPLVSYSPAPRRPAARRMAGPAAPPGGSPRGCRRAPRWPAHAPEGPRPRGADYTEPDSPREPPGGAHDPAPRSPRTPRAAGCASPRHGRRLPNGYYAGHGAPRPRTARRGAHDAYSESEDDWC

Assays:
Assay in all cases: co-IP; RIPA-solubilized membrane extracts of adult mouse cerebellum (1 mg/ml) incubated overnight at 0-4°C with anti-Cav2.1, anti-mGlu1α or anti-SK2 antibody (2 μg); immunoprecipitates analysed by SDS-PAGE and immunoblot; control IgG gave no bands
[1] = target: mGlu1α receptor (mouse (endogenous in cerebellum)) (UniProt P97772)
[2] = target: small-conductance, Ca2+-activated K+ (SK) channel subtype SK2 (mouse (endogenous in cerebellum)) (UniProt P58390)
[3] = target: CaV2.1 channel (mouse (endogenous in cerebellum)) (UniProt P97445)

CaV2.1 channel (from UniProt P97445 1-2368)
binding [1]: binds weakly
binding [2]: binds

mGlu1α receptor (from UniProt P97772 21-1199)
binding [3]: binds
binding [2]: binds

small-conductance, Ca2+-activated K+ (SK) channel subtype SK2 (from UniProt P58390 1-574)
binding [1]: binds weakly
binding [3]: binds
